Results: publication PMC9977495
No constants are given. Whether binding was seen depends on the method and setting. Binding seen in cells or lysates may run through a third protein. Some results given as binding are weak or reduced against the parent protein; the word gives no strength. Tags and fused reporters may be left off the sequences shown.

Target: T1, GST-ICAT (inhibitor of catenin and T cell factor [TCF]) (UniProt Q9NSA3)
T1 sequence: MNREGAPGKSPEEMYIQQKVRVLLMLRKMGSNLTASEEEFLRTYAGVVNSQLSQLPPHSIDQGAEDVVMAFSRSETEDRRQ
Experiment: pull-down; 1000 ug lysate of rat AT2 cells (plated at three densities; infected with adenovirus for GFP, WNT3A or WNT5A, lysed after 72 h) with 20 ug GST-ICAT and glutathione-sepharose beads, rocked at 4°C for 2 hours; beads washed with 0.1% triton buffer; immunoblot; only the target purified

- binding: binds
B1: β-catenin (protein, UniProt Q9WU82 1-781)
chain: MATQADLMELDMAMEPDRKAAVSHWQQQSYLDSGIHSGATTTAPSLSGKGNPEEEDVDTSQVLYEWEQGFSQSFTQEQVADIDGQYAMTRAQRVRAAMFPETLDEGMQIPSTQFDAAHPTNVQRLAEPSQMLKHAVVNLINYQDDAELATRAIPELTKLLNDEDQVVVNKAAVMVHQLSKKEASRHAIMRSPQMVSAIVRTMQNTNDVETARCTAGTLHNLSHHREGLLAIFKSGGIPALVKMLGSPVDSVLFYAITTLHNLLLHQEGAKMAVRLAGGLQKMVALLNKTNVKFLAITTDCLQILAYGNQESKLIILASGGPQALVNIMRTYTYEKLLWTTSRVLKVLSVCSSNKPAIVEAGGMQALGPHLTDPSQRLVQNCLWTLRNLSDAATKQEGMEGLLGTLVQLLGSDDINVVTCAAGILSNLTCNNYKNKMMVCQVGGIEALVRTVLRAGDREDITEPAICALRHLTSRHQEAEMAQNAVRLHYGLPVVVKLLHPPSHWPLIKATVGLIRNLALCPANHAPLREQGAIPRLVQLLVRAHQDTQRRTSMGGTQQQFVEGVRMEEIVEGCTGALHILARDVHNRIVIRGLNTIPLFVQLLYSPIENIQRVAAGVLCELAQDKEAAEAIEAEGATAPLTELLHSRNEGVATYAAAVLFRMSEDKPQDYKKRLSVELTSSLFRTEPMAWNETADLGLDIGAQGEALGYRQDDPSYRSFHSGGYGQDALGMDPMMEHEMGGHHPGADYPVDGLPDLGHAQDLMDGLPPGDSNQLAWFDTDL
